Assay results taken from PubChem BioAssay AID588497 (NMMLSC, 2011).
Out of some 360,000 compounds screened, about 780 (0.22%) were called active. The shares of active, inactive and inconclusive entries below differ from those in the screen. No stated cut-off is given here; in the data, active means inhibition above about 35% (passing the limit was not always enough); inconclusive means no clear call, values can overlap the other calls.

These compounds were tested on Botulinum neurotoxin type F light chain protease (Clostridium botulinum) (assay: BoNT/F light chain protease inhibitors, primary screen, biochemical, flow cytometry, MLPCN library (AID 588497; further: plate controls were buffer without enzyme for full effect and enzyme alone for no effect)). Conditions: Multiplex microsphere protease cleavage assay, at 10 µM, active compounds read high.

Structure (SMILES)	inhibition
COc1cc(C(=O)Nc2ccc(C(=O)NCC3CCCO3)cc2)cc(OC)c1OC (stereo not drawn)	inconclusive: 21.7%
COc1ccc(/C(C#N)=C/c2ccccn2)cc1	inconclusive: -5.7%
COCCC(=O)N1CCC(Oc2ccc(C(=O)NC3CCCCC3)cc2)CC1	inconclusive: 0.3%
Cc1cccc(C)c1NC(=O)CNC(=O)C1CC(=O)N(Cc2ccccc2)C1 (stereo not drawn)	inconclusive: -13%
COc1ccc(CCNC(=O)c2cc(C3CC3)nc3c2cnn3C(C)C)cc1OC	inconclusive: 156%
Cc1ccc(NC(=O)C(=O)NCC2CCCN2S(=O)(=O)c2cccs2)c(C)c1 (stereo not drawn)	inconclusive: 5%
CCOC(OCC)P(=O)(C(C)C)C(C)C	inconclusive: -22.5%
Cc1c(N2C(=O)C3C4C=CC(C5CC45)C3C2=O)c(=O)n(-c2ccccc2)n1C (stereo not drawn)	inconclusive: -103%
CSc1ccc(C(=O)C2CCCN(C(=O)Cc3nonc3C)C2)cc1 (stereo not drawn)	inactive: 0.8%
Cc1cc(C)c(S(=O)(=O)Nc2ccc(C(=O)O)cc2)cc1S(=O)(=O)Nc1ccc(C(=O)O)cc1	inconclusive: -73.7%
O=C(C1CC(=O)N(c2ccccc2)C1)N1CCN(c2ccccc2)CC1 (stereo not drawn)	inactive: 2.3%
CC(=O)Nc1ccc(NC(=O)COC(=O)c2cc(S(=O)(=O)N(C)C)ccc2N2CCCC2)cc1	inconclusive: -5.3%
Cc1cccc(C)c1N1C(=O)CC(N2CCSCC2)C1=O (stereo not drawn)	inconclusive: 2.4%
Cc1cc(=O)[nH]c(-c2ccccc2)n1	inconclusive: -26.4%
O=C(Nc1ccccc1)N1CCCC(c2nc(-c3ccc(F)cc3)no2)C1 (stereo not drawn)	inconclusive: 9.2%
CC(C)NC(=O)c1ccc2c(c1)N(CC(=O)N1CCCC1)C(=O)C(C)(C)O2	inconclusive: 22.2%
CC1(C)c2cc(O)ccc2OC1N1CCOCC1 (stereo not drawn)	inconclusive: -5.4%
COc1ccccc1C(=O)NCCC(=O)NNC(=O)Cn1ccc(C(F)(F)F)n1	inconclusive: 12%
O=C(COc1ccc(F)cc1)Nc1nnc(C2CC2)s1	inconclusive: -1.7%
CCOC(=O)C1=C(COC(=O)c2ccc(Cl)cc2[N+](=O)[O-])NC(=O)NC1C (stereo not drawn)	inactive: 11%

Structure (SMILES)	inhibition
COc1ccccc1/C=C/c1nc2ccc(OC(C)=O)cc2c(=O)o1	inconclusive: 22.6%
O=C1C(=O)c2ccccc2C(O)=C1CCCCl	inconclusive: 5.6%
O=C(NC1C2CC3CC(C2)CC1C3)c1ccc2c(c1)OCO2 (stereo not drawn)	inconclusive: -30.5%
CCSc1nnc(NC(=O)c2c(-c3ccccc3Cl)noc2C)s1	inconclusive: 18.1%
COCCCNC1=C(Cl)C(=O)c2ccccc2C1=O	inconclusive: 15.2%
COc1ccc(NC(=O)c2cc(-c3ccccc3Cl)on2)cc1OC	inconclusive: -11.5%
COCCN(C(=O)COC(=O)CSc1ccc(Cl)cc1)c1c(N)n(Cc2ccccc2)c(=O)[nH]c1=O	inconclusive: -30.9%
CCc1nnc2n1N=C(c1ccc([N+](=O)[O-])cc1)CS2	inconclusive: 15%
CC(C)c1ccc(N=Nc2c(O)[nH]c(=O)[nH]c2=O)cc1	inconclusive: 5.7%
CC(=O)c1ccc(OCc2cc(C(=O)NC(C)CCn3cccn3)no2)cc1 (stereo not drawn)	inactive: 6.8%
CC(=O)Nc1ccc(-c2cc(C(=O)O)c3ccc(C)cc3n2)cc1	inconclusive: -29.4%
O=C(CSc1nc2ncccc2[nH]1)c1ccc2c(c1)OCO2	inconclusive: -65.9%
O=[N+]([O-])c1ccc(/C=C/C2=NN(c3ccccc3)C(c3ccco3)C2)cc1 (stereo not drawn)	active: 66.3%
Cc1ccc(S(=O)(=O)N2CCCC2c2cccnc2)cc1 (stereo not drawn)	inconclusive: -57.1%
O=C(Nc1cccc(Cl)c1Cl)C1CCCO1 (stereo not drawn)	inconclusive: -14.7%
O=C(Cc1cn(-c2ccccc2)nc1-c1ccccc1)N1CCCCC1	inactive: 10.8%
O=c1[nH]c2c(=O)[nH]cnc2nc1-c1ccccc1	inconclusive: 38.4%
Cn1c2ccc(F)cc2c2nc3ccccc3nc21	inconclusive: -10.9%
O=C(NCc1ccc2c(c1)OCO2)C1CCN(c2nccc(C(F)(F)F)n2)CC1	inconclusive: 22.5%
c1ccc(SCCOCCN2CCOCC2)cc1	inconclusive: -8.2%

Three entries already listed, arranged by length of the SMILES, high to low.
Structure (SMILES)	inhibition
O=[N+]([O-])c1ccc(/C=C/C2=NN(c3ccccc3)C(c3ccco3)C2)cc1 (stereo not drawn)	active: 66.3%
O=C(Cc1cn(-c2ccccc2)nc1-c1ccccc1)N1CCCCC1	inactive: 10.8%
CCc1nnc2n1N=C(c1ccc([N+](=O)[O-])cc1)CS2	inconclusive: 15%

Next part:

Structure (SMILES)	inhibition
O=C(c1ccc(F)cc1)C1CCN(C(=O)c2ccccc2)CC1	inconclusive: -26%
Cc1cccc(NC(=S)N(C)C)c1C	inconclusive: -39.6%
CCN(CC)C(=O)[C@H]1C[C@H](CC(=O)NC(C)(C)C)C(=O)N2CCc3c([nH]c4cc(CCC(=O)N(C)C)ccc34)[C@]12C	inactive: 0.7%
O=C(COc1cccc(Br)c1)Nc1ccc(Cl)c(S(=O)(=O)N2CCOCC2)c1	inactive: -8.9%
COc1ccc(-n2c(-c3ccc(C)cc3)nc3ccccc3c2=O)cc1	inactive: -7.4%
CCc1ccc(NC(=O)CSc2nc3c(c(=O)n(C)c(=O)n3C)n2C)cc1	inactive: -12.4%
CSc1nnc(CCNC(=O)OC(C)(C)C)o1	inconclusive: 5.5%
C/C(=N\NC(=O)Cc1ccccc1)c1ccc(Br)s1	inconclusive: 6.5%
O=C(CN(Cc1ccc(F)cc1)C(=O)CCC(=O)Nc1nccs1)NCC1CCCO1 (stereo not drawn)	inactive: 4.4%
CCOC(=O)c1cc2cc3ccccc3cc2oc1=O	inconclusive: 19.4%
O=C(N/N=C/c1ccccc1)c1cc(=O)[nH]c2ccccc12	inactive: 1.3%
COc1ccc(-c2nc3ccc(C)cn3c2Cc2ccsc2)cc1OC	inactive: 1.2%
COc1cccc(S(=O)(=O)NCC(=O)N2CCCC2)c1	inconclusive: -8%
N=C(N)c1ccc(/C=C/c2ccc(C(=N)N)cc2O)cc1	inconclusive: 116%
Cc1ccc(S(=O)(=O)NCc2ccccc2C)cc1	inconclusive: 22.4%
OC(c1cccc(Cl)c1)c1nccc2ccccc12 (stereo not drawn)	inconclusive: 10.2%
COc1ccc(-n2c(SCC(=O)C(C)(C)C)nc3c(sc(=S)n3-c3ccccc3)c2=O)c(OC)c1	inactive: 6.5%
Cc1oc(C)c(C(=O)Nc2ccc(CC(=O)O)cc2)c1C(=O)Nc1ccc(CC(=O)O)cc1	inconclusive: 29.3%
